± gives the standard deviation. The entries are a selection whose mix differs from that of the whole data set. The uncertainty is large for many entries.

In the test the test system is MIWI (PIWIL1) piRISC loaded with piRNA #2 (30 nt). Put plainly: pre-steady-state target cleavage rate (min^-1); MIWI and MILI are mouse PIWI proteins and EfPiwi is from a freshwater sponge; tags in brackets are library labels; higher = faster piRNA-guided slicing of the target. As to conditions: guide: piRNA #2 5'p-UUAGGUAACCCAGUAGAUCCAGAGGAAUUC; auxiliary factor: 500 nM mouse GTSF1. In short, it runs like this:
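The pre-steady-state cleavage rate came from a burst-and-steady-state fit to pooled data from three Cleave-'n-Seq trials, in which uncleaved targets were sequenced and normalised to depth and to weakly complementary targets. Each reaction held 0.1 nM transcribed, DNA-blocked target RNA library and 1 nM active affinity-purified piRISC carrying one synthetic guide, with or without 500 nM GTSF1 partner protein, in HEPES–potassium acetate buffer at 33 °C for 0–8 or 0–960 min. k3 was capped at 0.0001 min^-1.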
In the case of CUUAAGGAGUGGAUCUACUGGGGUUACCUAA, the “pre-steady-state target cleavage rate” value was 0.000179 ± 0.023.

For the sequence CUUAAGGUCUGGAUCUAUCUGGGUUACCUAA, the “pre-steady-state target cleavage rate” value was determined as 0.000339 ± 0.02.

CUUAAGGAGAGGAUCAUACUGGGUUACCUAA: the “pre-steady-state target cleavage rate” value worked out at 0.000894 ± 0.012.

Consider CUUAAGGAGUGGACUCUACUGGGUUACCUAA, for which the “pre-steady-state target cleavage rate” value was 0.0088 ± 0.01.

In the case of CUUUUCCGUCUGGAUCUACUGGGUUACCUAA, the “pre-steady-state target cleavage rate” value is 0.385 ± 0.039.

Take CUUUUCCUCUGGAUCUACUGUGUUACCUAA: the “pre-steady-state target cleavage rate” value is 0.751 ± 0.048.

On to CUUAAGGAGACGAUCUACUGGGUUUACCUAA, for which the “pre-steady-state target cleavage rate” value turned out to be 0.00248 ± 0.004.

For the sequence CUUAAGGAGACCAAUCUACUGGGUUACCUAA, the “pre-steady-state target cleavage rate” value was 0.00318 ± 0.0049.

On to GAAUUCCUCUGGAUCUACUGAGUUACCUAA, for which the “pre-steady-state target cleavage rate” value is 0.67 ± 0.046.

Consider CAAUUCCUCUGGUCUACUGGGUUACCUAA, for which the “pre-steady-state target cleavage rate” value was 0.369 ± 0.088.

In the case of CUUAAGGAGACCUAGAUGUGGGUUAUCUAA, the “pre-steady-state target cleavage rate” value was determined as 0.000379 ± 0.019.

Consider “CUUUUCCUCUGGAUCUACUGGGUAUGGAUA [g8:g27:cont:t1A]”, for which the “pre-steady-state target cleavage rate” value was 0.00112 ± 0.012.

With CUUAAGGACUGGAUCUACUGGCUUACCUUA, the “pre-steady-state target cleavage rate” value turned out to be 0.00755 ± 0.014.

Take CUUAAGGUCUGGAUGUACUCGGUUACCUAA: the “pre-steady-state target cleavage rate” value was found to be 0.0154 ± 0.016.

CUUAUCCUCUCCAUCUACUGGGUUACCUAA: the “pre-steady-state target cleavage rate” value was found to be 0.422 ± 0.033.

For the sequence CUUAAGGAGACGAUCUACUGGGUUACACUAA, the “pre-steady-state target cleavage rate” value is 0.00084 ± 0.0082.

With CUUAAGGACUGGAUCUACUGGGGUUACCUAA, the “pre-steady-state target cleavage rate” value was 0.00127 ± 0.021.

As for CUUAAGGAGAGGAUCUUCUGGGUUUCCUAA, the “pre-steady-state target cleavage rate” value stood at 0.000945 ± 0.011.

Turning to CUUAAGGAGACCUAGUCACUGGGUUACCUAA, the “pre-steady-state target cleavage rate” value came out at 0.00112 ± 0.005.

On to CUUAAGGAGACGAUCUACUGGGUCACCUAA, for which the “pre-steady-state target cleavage rate” value was 0.00314 ± 0.0036.

For CUUAAGGAGACGAUCGACUGGGUUACCUAA, the “pre-steady-state target cleavage rate” value worked out at 0.000313 ± 0.034.

For CUUAAGGAGACGAUCAAGUGGGUUACCUAA, the “pre-steady-state target cleavage rate” value came to 0.000239 ± 0.024.

CUUAAGGAGACGAGCUACUGGGUUACCUAA: the “pre-steady-state target cleavage rate” value was found to be 0.00114 ± 0.011.

In the case of CUUAUCCUCUCGAUCUACUGGGUUACCUUA, the “pre-steady-state target cleavage rate” value stood at 0.436 ± 0.032.

Take “CUUAAGGAGACCUACUACUGGGUUACCUAG [g2:g16:cont:t1G]”: the “pre-steady-state target cleavage rate” value worked out at 0.0012 ± 0.01.

For CUUAAGGAGACGAUCUACUGGCUUACGUAA, the “pre-steady-state target cleavage rate” value was 0.000714 ± 0.011.

For CAAUUCCUCUCGAUCUACUCGGUUACCUAA, the “pre-steady-state target cleavage rate” value was found to be 0.22 ± 0.022.

Regarding CUUAAGGAGACCUAGAUGACCGUUACCUAA, the “pre-steady-state target cleavage rate” value stood at 0.00112 ± 0.0045.

On to CAAUACCUCUGGUUCUACUGGGUUACCUAA, for which the “pre-steady-state target cleavage rate” value was found to be 0.909 ± 0.066.

Consider CUUAAGGAGUGGAUCAACUGGGUUUCCUAA, for which the “pre-steady-state target cleavage rate” value was found to be 0.00206 ± 0.0046.

On to CUUAAGGAGACCAUCUACUGGUGUUACCUAA, for which the “pre-steady-state target cleavage rate” value amounted to 0.000892 ± 0.0069.

As for CUUAACCUCUCGAUCUACUGGCUUACCUAA, the “pre-steady-state target cleavage rate” value was 0.173 ± 0.016.

In the case of CUUAAGGAGAGGUUCUACAGGGUUACCUAA, the “pre-steady-state target cleavage rate” value is 0.00256 ± 0.0048.

With CUUAAGGAGAGGAUCUACUGGGUAACCUAA, the “pre-steady-state target cleavage rate” value amounted to 0.00292 ± 0.0063.

Consider CUUAAGGAGACGAUCUUCUGGGUUACCAAA, for which the “pre-steady-state target cleavage rate” value was found to be 0.00107 ± 0.0038.

For the sequence CUUAAGGAGAGGAUCUACUGGGAUACCUAA, the “pre-steady-state target cleavage rate” value was 0.00288 ± 0.005.

In the case of CUUAAGGAGACCUACUACUGGGUUAGCAAA, the “pre-steady-state target cleavage rate” value turned out to be 0.000246 ± 0.029.

For the sequence CUUAAGGACUGGAUCUACUGGGUUAGGAAA, the “pre-steady-state target cleavage rate” value is 0.000577 ± 0.026.

In the case of GAAUUCCUCUGGAACUACUGGGUUACCAAA, the “pre-steady-state target cleavage rate” value was 0.233 ± 0.056.

As to CUUAAGGUCUGGAUCUACUCGGUUAGCUAA, the “pre-steady-state target cleavage rate” value is 0.00108 ± 0.014.

CUUAAGGACUGGAUCUACUGGGAUAGCUAA: the “pre-steady-state target cleavage rate” value was 0.00465 ± 0.0075.

CUUAAGGAGACCUAGAUGACGGUUACCAUA: the “pre-steady-state target cleavage rate” value was 0.000119 ± 0.033.

CUUUUCCUCUGGUUCUACUGGGUUACCUAA: the “pre-steady-state target cleavage rate” value was 0.621 ± 0.042.

For the sequence CUUAAGGACUGGAUCUACUGGGUUAGCUUA, the “pre-steady-state target cleavage rate” value stood at 0.00627 ± 0.013.

With CUUAAGGAGACCUAGAACUGGGUUACCUA, the “pre-steady-state target cleavage rate” value is 0.000158 ± 0.027.

With CUUAAGGUCUGGAUCACUGGGUUACCUAA, the “pre-steady-state target cleavage rate” value is 0.00175 ± 0.0085.

Take CUUAUCCUCUGGAUCUGACUGGGUUACCUAA: the “pre-steady-state target cleavage rate” value was 0.00062 ± 0.014.

In the case of CUUAAGGAGAGGAACUACUGGGUUUCCUAA, the “pre-steady-state target cleavage rate” value was determined as 0.000432 ± 0.012.

On to CUUAAGGAGAGGAACUACUGGGUUACCUAA, for which the “pre-steady-state target cleavage rate” value was 0.00349 ± 0.0053.

On to CUUAAGGAGUGGAUCUUCUGGGUUAGCUAA, for which the “pre-steady-state target cleavage rate” value stood at 0.00109 ± 0.015.

For CUUAAGGAGUGGAUCUACUGGGAUUACCUAA, the “pre-steady-state target cleavage rate” value was determined as 0.00195 ± 0.0057.

For the sequence CUUAAGGAGUGGAACUACAGGGUUACCUAA, the “pre-steady-state target cleavage rate” value was determined as 0.00168 ± 0.014.

Consider CUUAAGGAGACCUAGAACUGGGUUUCCUAA, for which the “pre-steady-state target cleavage rate” value stood at 0.000587 ± 0.011.

Turning to CUUAAGGAGACGAUCUACUGGGUUAUCUAA, the “pre-steady-state target cleavage rate” value came out at 0.00245 ± 0.0027.

Regarding CUAUUCCUCUGGAUCUACUGUGGUUACCUAA, the “pre-steady-state target cleavage rate” value amounted to 0.0019 ± 0.0062.

Take CUUAAGGAGACCAACUACUCGGUUACCUAA: the “pre-steady-state target cleavage rate” value worked out at 0.000245 ± 0.014.

As to CUUAAGGAGACCUUCUACUCGGGUUACCUAA, the “pre-steady-state target cleavage rate” value stood at 0.0012 ± 0.0054.

Take CUUAAGGAGACCUAGUGCUGGGUUACCUAA: the “pre-steady-state target cleavage rate” value came out at 0.00112 ± 0.0076.

As for CUUAACCUCUGGAUCUACUUGGUUACCUAA, the “pre-steady-state target cleavage rate” value was 0.00253 ± 0.0043.

As to CUUAAGCUCUGGAUCUACUAGGGUUACCUAA, the “pre-steady-state target cleavage rate” value was 0.000549 ± 0.013.

On to CUUAAGGAGACGAUCUACUUGGGUUACCUAA, for which the “pre-steady-state target cleavage rate” value turned out to be 0.00105 ± 0.0095.

In the case of CUUAAGGAGUGGAUCAACUGGGUUACGUAA, the “pre-steady-state target cleavage rate” value was found to be 0.053 ± 0.014.

On to CUUAAGGAGAGGAUCUACUGGGAAACCUAA, for which the “pre-steady-state target cleavage rate” value was 0.000227 ± 0.029.

Regarding CUAUUCCUCUCGAUCUACUGGGUUACCUUA, the “pre-steady-state target cleavage rate” value was determined as 0.583 ± 0.056.

Consider CUUAAGGACUGGAUCUACUGGCGUUACCUAA, for which the “pre-steady-state target cleavage rate” value worked out at 0.000346 ± 0.045.

Regarding CUUAAGGACUGCAUCUACAGGGUUACCUAA, the “pre-steady-state target cleavage rate” value was found to be 0.00634 ± 0.0076.

With CUUAAGGAGACGAUGUACUGGGUUACGUAA, the “pre-steady-state target cleavage rate” value stood at 0.000253 ± 0.024.

On to GAAUUCCUCUGGUUCUACUGGGUUACCUAA, for which the “pre-steady-state target cleavage rate” value was 0.678 ± 0.042.

Consider CUUAAGGUCUGGAUCUACUUGGGUUACCUAA, for which the “pre-steady-state target cleavage rate” value worked out at 0.000441 ± 0.018.

With CUUAAGGACUCCUUCUACUGGGUUACCUAA, the “pre-steady-state target cleavage rate” value came out at 0.0016 ± 0.0065.

As for CUUAAGGAGACCUAGAUCUGAGGUUACCUAA, the “pre-steady-state target cleavage rate” value came to 0.00106 ± 0.0088.

The record behind these values is the supplement of paper PMC10338343.
